Measured values from patent publication EP4624492A1.
Results are given in words; binding and its absence hold for the method and conditions named. Binding calls can cover weak binding; strength is not graded here.

Key:
[1] = target: cynomolgus CCR8 (cynomolgus monkey); experiment: flow cytometry on 293T-cynoCCR8 cells
[2] = target: cynomolgus CCR8 (cynomolgus monkey); experiment: flow cytometry, hybridoma supernatant on CHOK1-cynoCCR8 cells

Binder | binding [1] | binding [2]
27B9-1G3 (antibody, V domains shown) VH: EIQLQQSGPELEKPGASVKISCKASGYSFTGYNMNWVKKSNGKSLEWIGNIDPYYGGTNYNQKFKGKATLTVDKSSSTAYMQLKSLTSEDSAVYYCARETWFITTGVIKKGFYFDYWGQGTTLTVSS VL: EIVLTQSPTTMAASPGEKITLACSASSIISSNYLHWYQQKPGFSPKLLIYRTSSLASGVPARFSGSGSGTSYSLTIGTMEAEDVATYYCQQGSSIPRTFGGGTKLEIK | binds | binds
27B9-1G3_hIgG1 (antibody, V domains shown) VH: EIQLQQSGPELEKPGASVKISCKASGYSFTGYNMNWVKKSNGKSLEWIGNIDPYYGGTNYNQKFKGKATLTVDKSSSTAYMQLKSLTSEDSAVYYCARETWFITTGVIKKGFYFDYWGQGTTLTVSS VL: EIVLTQSPTTMAASPGEKITLACSASSIISSNYLHWYQQKPGFSPKLLIYRTSSLASGVPARFSGSGSGTSYSLTIGTMEAEDVATYYCQQGSSIPRTFGGGTKLEIKR | binds | –
563E10E12 (antibody, V domains shown) VH: EVQLIESGGGLVQPKGSLKLSCAASGFNFNAYAMNWVRQAPGKGLEWVARIRSKSNNFATYYADSVTDRFTISRDDSESMLYLQMNNLKTEDTAMYYCVRHGRRDLLYSMDFWGQGTSVTVSS VL: DVVMTQAAFSNPVTLGTSTSISCRSSKSLLHSNGITYLFWYLQKPGQSPQLLIYQMSNLASGVPDRFSGSGSGTDFTLRISRVEAEDVGVYYCAQSLELPLTFGGGTKLEIK | binds | binds
559E1B10 (antibody, V domains shown) VH: KVQLQQSGPVLVKPGASVKMSCKASGYTFTDYYVNWMKQNYGKSPEWIGVINPHNGDTRYNQKFKGKATLTVDKSSSTANMELTSLTSGDSAVYYCASWLRRGYYFDSWGQGTTLTVSS VL: DIVMTQSPATLSVTPGDRVSLSCRASQSISDYLHWYQQKSHESPRLLLKYVSQSISGIPSRFSGSGSGSDFTLTINSVEPEDVGVYYCQNGHSFPLTFGAGTKLELK | binds | binds

Other lines, results leading:

binding [1] | binding [2] | Binder
binds | binds | 569D11B5 (antibody, V domains shown) VH: EVQLIESGGGLVQPKGSLKLSCAASGFNFNAYAMNWVRQAPGKGLEWVARIRSKSNDFATYYADSVKGRFTISRDDSENMLFLQMNNLKTEDTAMYYCVRHGRRDLLYSMDFWGQGTSVTVSS VL: DIVMTQAAFSNPVTLGTSASISCRSSKSLLHSNGITYLFWYLQKPGQSPQLLIYQMSNLASGVPDRFSGSGSGTDFTLRISRVEAEDVGVYYCAQSLELPLTFGGGTKLEIK
binds | binds | 589D7C7 (antibody, V domains shown) VH: EVQLVESGGGLVQPKGSLKLSCAASGFNFNAYAMNWVRQAPGKGLEWVARIRSKSNNFATYYADSVKDRFTISRDDSESMVYLEMNNLKTEDTAMYYCVRHGRRDLLYSMDFWGQGTSVTVSS VL: DIVMTQAAFSNPVTLGTSASISCRSSKSLLHSNGITYLFWYLQKPGQSPQLLIYQMSNLASGVPDRFSGSGSGTDFTLRISRVEAEDVAVYYCAQSLELPLTFGGGTKLEIK
